# B1: PRMT3 (protein, UniProt O60678 2-531, looked up)
# Protein arginine …: CSLASGATGGRGAVENEEDLPELSDSGDEAAWEDEDDADLPHGKQQTPCLFCNRLFTSAEETFSHCKSEHQFNIDSMVHKHGLEFYGYIKLINFIRLKNPTVEYMNSIYNPVPWEKEEYLKPVLEDDLLLQFDVEDLYEPVSVPFSYPNGLSENTSVVEKLKHMEARALSAEAALARAREDLQKMKQFAQDFVMHTDVRTCSSSTSVIADLQEDEDGVYFSSYGHYGIHEEMLKDKIRTESYRDFIYQNPHIFKDKVVLDVGCGTGILSMFAAKAGAKKVLGVDQSEILYQAMDIIRLNKLEDTITLIKGKIEEVHLPVEKVDVIISEWMGYFLLFESMLDSVLYAKNKYLAKGGSVYPDICTISLVAVSDVNKHADRIAFWDDVYGFKMSCMKKAVIPEAVVEVLDPKTLISEPCGIKHIDCHTTSISDLEFSSDFTLKITRTSMCTAIAGYFDIYFEKNCHNRVVFSTGPQSTKTHWKQTVFLLEKPFSVKAGEALKGKVTVHKNKKDPRSLTVTLTLNNSTQTYGLQ
# B2: GSE1 KIAA0182 (protein, UniProt Q14687 1-1217, looked up)
# Genetic suppressor element 1: MKGMSHEPKSPSLGMLSTATRTTATVNPLTPSPLNGALVPSGSPATSSALSAQAAPSSSFAAALRKLAKQAEEPRGSSLSSESSPVSSPATNHSSPASTPKRVPMGPIIVPPGGHSVPSTPPVVTIAPTKTVNGVWRSESRQDAGSRSSSGGRERLIVEPPLPQEKAGGPAIPSHLLSTPYPFGLSPSSVVQDSRFPPLNLQRPVHHVVPPSTVTEDYLRSFRPYHTTDDLRMSSLPPLGLDPATAAAYYHPSYLAPHPFPHPAFRMDDSYCLSALRSPFYPIPTPGSLPPLHPSAMHLHLSGVRYPPELSHSSLAALHSERMSGLSAERLQMDEELRREREREREREREREADREREKEREREREKEREQEKEREREKERERELERQREQRAREKELLAAKALEPSFLPVAELHGLRGHATEERGKPSEQLTPTRAEKLKDAGLQAPKPVQHPLHPVPTPHHTVPSLISNHGIFSLPSSSAATALLIQRTNEEEKWLARQRRLRQEKEDRQSQVSEFRQQVLEQHLDMGRPPVPAEAEHRPESTTRPGPNRHEPGGRDPPQHFGGPPPLISPKPQLHAAPTALWNPVSLMDNTLETRRAESHSLHSHPAAFEPSRQAAVPLVKVERVFCPEKAEEGPRKREPAPLDKYQPPPPPPREGGSLEHQPFLPGPGPFLAELEKSTQTILGQQRASLPQAATFGELSGPLKPGSPYRPPVPRAPDPAYIYDEFLQQRRRLVSKLDLEERRRREAQEKGYYYDLDDSYDESDEEEVRAHLRCVAEQPPLKLDTSSEKLEFLQLFGLTTQQQKEELVAQKRRKRRRMLRERSPSPPTIQSKRQTPSPRLALSTRYSPDEMNNSPNFEEKKKFLTIFNLTHISAEKRKDKERLVEMLRAMKQKALSAAVADSLTNSPRDSPAVSLSEPATQQASLDVEKPVGVAASLSDIPKAAEPGKLEQVRPQELSRVQELAPASGEKARLSEAPGGKKSLSMLHYIRGAAPKDIPVPLSHSTNGKSKPWEPFVAEEFAHQFHESVLQSTQKALQKHKGSVAVLSAEQNHKVDTSVHYNIPELQSSSRAPPPQHNGQQEPPTARKGPPTQELDRDSEEEEEEDDEDGEDEEEVPKRKWQGIEAVFEAYQEHIEEQNLERQVLQTQCRRLEARHYSLSLTAEQLSHSVAELRSQKQKMVSERERLQAELDHLRKCLALPAMHWPRGYLKGYPR
# B3: RIPK1 (protein, UniProt Q13546 1-671, looked up)
# Receptor-interacting …: MQPDMSLNVIKMKSSDFLESAELDSGGFGKVSLCFHRTQGLMIMKTVYKGPNCIEHNEALLEEAKMMNRLRHSRVVKLLGVIIEEGKYSLVMEYMEKGNLMHVLKAEMSTPLSVKGRIILEIIEGMCYLHGKGVIHKDLKPENILVDNDFHIKIADLGLASFKMWSKLNNEEHNELREVDGTAKKNGGTLYYMAPEHLNDVNAKPTEKSDVYSFAVVLWAIFANKEPYENAICEQQLIMCIKSGNRPDVDDITEYCPREIISLMKLCWEANPEARPTFPGIEEKFRPFYLSQLEESVEEDVKSLKKEYSNENAVVKRMQSLQLDCVAVPSSRSNSATEQPGSLHSSQGLGMGPVEESWFAPSLEHPQEENEPSLQSKLQDEANYHLYGSRMDRQTKQQPRQNVAYNREEERRRRVSHDPFAQQRPYENFQNTEGKGTAYSSAASHGNAVHQPSGLTSQPQVLYQNNGLYSSHGFGTRPLDPGTAGPRVWYRPIPSHMPSLHNIPVPETNYLGNTPTMPFSSLPPTDESIKYTIYNSTGIQIGAYNYMEIGGTSSSLLDSTNTNFKEEPAAKYQAIFDNTTSLTDKHLDPIRENLGKHWKNCARKLGFTQSQIDEIDHDYERDGLKEKVYQMLQKWVMREGIKGATVGKLAQALHQCSRIDLLSSLIYVSQN
# B4: EPS15 (protein)
# chain: AAAAQLSLTQLSSGNPVYEKYYRQVDTGNTGRVLASDAAAFLKKSGLPDLILGKIWDLADTDGKGILNKQEFFVALRLVACAQNGLEVSLSSLNLAVPPPRFHDTSSPLLISGTSAAELPWAVKPEDKAKYDAIFDSLSPVNGFLSGDKVKPVLLNSKLPVDILGRVWELSDIDHDGMLDRDEFAVAMFLVYCALEKEPVPMSLPPALVPPSKRKTWVVSPAEKAKYDEIFLKTDKDMDGFVSGLEVREIFLKTGLPSTLLAHIWSLCDTKDCGKLSKDQFALAFHLISQKLIKGIDPPHVLTPEMIPPSDRASLQKNIIGSSPVADFSAIKELDTLNNEIVDLQREKNNVEQDLKEKEDTIKQRTSEVQDLQDEVQRENTNLQKLQAQKQQVQELLDELDEQKAQLEEQLKEVRKKCAEEAQLISSLKAELTSQESQISTYEEELAKAREELSRLQQETAELEESVESGKAQLEPLQQHLQDSQQEISSMQMKLMEMKDLENHNSQLNWCSSPHSILVNGATDYCSLSTSSSETANLNEHVEGQSNLESEPIHQESPARSSPELLPSGVTDENEVTTAVTEKVCSELDNNRHSKEEDPFNVDSSSLTGPVADTNLDFFQSDPFVGSDPFKDDPFGKIDPFGGDPFKGSDPFASDCFFRQSTDPFATSSTDPFSAANNSSITSVETLKHNDPFAPGGTVVAASDSATDPFASVFGNESFGGGFADFSTLSKVNNEDPFRSATSSSVSNVVITKNVFEETSVKSEDEPPALPPKIGTPTRPCPLPPGKRSINKLDSPDPFKLNDPFQPFPGNDSPKEKDPEIFCDPFTSATTTTNKEADPSNFANFSAYPSEEDMIEWAKRESEREEEQRLARLNQQEQEDLELAIALSKSEISEA
# B5: PDAP1 (protein, UniProt Q13442 1-181, looked up)
# 28 kDa heat- and acid-stable …: MPKGGRKGGHKGRARQYTSPEEIDAQLQAEKQKAREEEEQKEGGDGAAGDPKKEKKSLDSDESEDEEDDYQQKRKGVEGLIDIENPNRVAQTTKKVTQLDLDGPKELSRREREEIEKQKAKERYMKMHLAGKTEQAKADLARLAIIRKQREEAARKKEEERKAKDDATLSGKRMQSLSLNK
# B6: HINT1 (protein, UniProt P49773 2-126, looked up)
# Adenosine …: ADEIAKAQVARPGGDTIFGKIIRKEIPAKIIFEDDRCLAFHDISPQAPTHFLVIPKKHISQISVAEDDDESLLGHLMIVGKKCAADLGLNKGYRMVVNEGSDGGQSVYHVHLHVLGGRQMHWPPG
# B7: TBL1XR1 (protein, UniProt Q9BZK7 2-514, looked up)
# F-box-like/WD …: SISSDEVNFLVYRYLQESGFSHSAFTFGIESHISQSNINGALVPPAALISIIQKGLQYVEAEVSINEDGTLFDGRPIESLSLIDAVMPDVVQTRQQAYRDKLAQQQAAAAAAAAAAASQQGSAKNGENTANGEENGAHTIANNHTDMMEVDGDVEIPPNKAVVLRGHESEVFICAWNPVSDLLASGSGDSTARIWNLSENSTSGSTQLVLRHCIREGGQDVPSNKDVTSLDWNSEGTLLATGSYDGFARIWTKDGNLASTLGQHKGPIFALKWNKKGNFILSAGVDKTTIIWDAHTGEAKQQFPFHSAPALDVDWQSNNTFASCSTDMCIHVCKLGQDRPIKTFQGHTNEVNAIKWDPTGNLLASCSDDMTLKIWSMKQDNCVHDLQAHNKEIYTIKWSPTGPGTNNPNANLMLASASFDSTVRLWDVDRGICIHTLTKHQEPVYSVAFSPDGRYLASGSFDKCVHIWNTQTGALVHSYRGTGGIFEVCWNAAGDKVGASASDGSVCVLDLRK
# Test system: Hsp90 complexes in K562 cell extract
# Assay: Nano-LC-MS/MS of PU-beads pull-downs
# Format: binding
# Conditions: protein identified in PU-beads pull-down of K562 extract, Prep 1; QSTAR-Elite QTof MS
# In short: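 Lysates pre-cleared overnight at 4 °C with control beads, then pulled down with PU-beads or control beads; eluted proteins (2% SDS boil) gel-separated and analysed by nano LC-MS/MS on a QTof. Mascot identification (p<0.05), spectral counts and sequence coverage evaluated in Scaffold.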
row,Molecule,"Number of Assigned Spectra, K562 Prep 1"
1,B1,6
2,B2,11
3,B3,2
4,B4,23
5,B5,0
6,B6,0
7,B7,3

# Same assay, conditions: protein identified in PU-beads pull-down of K562 extract, Prep 2; QSTAR-Elite QTof MS
row,Molecule,"Number of Assigned Spectra, K562 Prep 2"
1,B1,1
2,B2,2
3,B3,0
4,B4,26
5,B5,0
6,B6,0
7,B7,12

# Test system: Hsp90 complexes in Mia-PaCa-2 cell extract
# Assay: Nano-LC-MS/MS of PU-beads pull-downs
# Format: binding, human
# Conditions: protein identified in PU-beads pull-down of Mia-Paca 2 extract; QSTAR-Elite QTof MS
# In short: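 Lysates pre-cleared overnight at 4 °C with control beads underwent PU-bead pull-down; bound proteins were SDS-eluted, gel-separated, digested and analyzed by nano-LC-MS/MS on a QTof. Identifications used significance p<0.05, 0.4 Da tolerances and one missed cleavage; unique peptide (spectral) counts and sequence coverage were reported.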
row,Molecule,"Number of Assigned Spectra, Mia-Paca 2"
1,B1,1
2,B2,0
3,B3,0
4,B4,3
5,B5,5
6,B6,9
7,B7,3
